Experimental data reported in publication PMC4974783.
Results are given in words; binding and its absence hold for the method and conditions named. In cells and extracts the contact can be indirect. Some results given as binding are weak or reduced against the parent protein; the word gives no strength.

The chains behind the UniProt entries cited, without tags or fusion partners. Where a name states a change or a piece, a line headed by the entry shows the natural chain unless it says otherwise.
UniProt Q9NR12: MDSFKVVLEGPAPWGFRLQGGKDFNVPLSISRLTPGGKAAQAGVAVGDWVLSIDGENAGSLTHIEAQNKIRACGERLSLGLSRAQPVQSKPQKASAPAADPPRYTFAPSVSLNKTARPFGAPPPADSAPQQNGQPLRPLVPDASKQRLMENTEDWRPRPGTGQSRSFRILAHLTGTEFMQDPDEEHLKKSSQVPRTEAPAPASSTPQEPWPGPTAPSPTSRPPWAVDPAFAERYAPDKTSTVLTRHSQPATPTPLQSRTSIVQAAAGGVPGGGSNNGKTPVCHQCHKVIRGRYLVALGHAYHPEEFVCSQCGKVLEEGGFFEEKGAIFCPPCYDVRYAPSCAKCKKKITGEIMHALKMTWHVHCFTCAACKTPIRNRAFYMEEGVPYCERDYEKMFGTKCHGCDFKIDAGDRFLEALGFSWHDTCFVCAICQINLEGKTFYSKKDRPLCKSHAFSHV
UniProt P09382: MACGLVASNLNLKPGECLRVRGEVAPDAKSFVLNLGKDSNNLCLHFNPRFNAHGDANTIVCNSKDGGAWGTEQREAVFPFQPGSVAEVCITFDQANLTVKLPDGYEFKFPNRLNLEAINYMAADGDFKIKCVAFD
UniProt P28867: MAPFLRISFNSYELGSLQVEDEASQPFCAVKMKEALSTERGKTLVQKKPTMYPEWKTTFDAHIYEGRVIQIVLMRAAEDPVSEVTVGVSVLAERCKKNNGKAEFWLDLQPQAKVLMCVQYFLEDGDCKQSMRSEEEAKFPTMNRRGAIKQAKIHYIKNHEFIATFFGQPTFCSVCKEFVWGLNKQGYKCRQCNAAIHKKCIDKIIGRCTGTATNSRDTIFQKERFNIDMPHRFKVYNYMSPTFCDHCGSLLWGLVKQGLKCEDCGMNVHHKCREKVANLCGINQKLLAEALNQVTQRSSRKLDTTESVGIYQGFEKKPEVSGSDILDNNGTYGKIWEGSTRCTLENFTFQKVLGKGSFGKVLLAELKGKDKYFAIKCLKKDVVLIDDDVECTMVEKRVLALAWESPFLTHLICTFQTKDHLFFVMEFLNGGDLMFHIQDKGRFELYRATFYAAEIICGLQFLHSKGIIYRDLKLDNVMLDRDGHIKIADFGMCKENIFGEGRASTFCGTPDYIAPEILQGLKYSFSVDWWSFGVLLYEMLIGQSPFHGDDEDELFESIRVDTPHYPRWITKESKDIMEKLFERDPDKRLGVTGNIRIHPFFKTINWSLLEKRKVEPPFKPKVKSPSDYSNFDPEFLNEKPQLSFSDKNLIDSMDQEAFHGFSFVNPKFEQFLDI
UniProt Q05655: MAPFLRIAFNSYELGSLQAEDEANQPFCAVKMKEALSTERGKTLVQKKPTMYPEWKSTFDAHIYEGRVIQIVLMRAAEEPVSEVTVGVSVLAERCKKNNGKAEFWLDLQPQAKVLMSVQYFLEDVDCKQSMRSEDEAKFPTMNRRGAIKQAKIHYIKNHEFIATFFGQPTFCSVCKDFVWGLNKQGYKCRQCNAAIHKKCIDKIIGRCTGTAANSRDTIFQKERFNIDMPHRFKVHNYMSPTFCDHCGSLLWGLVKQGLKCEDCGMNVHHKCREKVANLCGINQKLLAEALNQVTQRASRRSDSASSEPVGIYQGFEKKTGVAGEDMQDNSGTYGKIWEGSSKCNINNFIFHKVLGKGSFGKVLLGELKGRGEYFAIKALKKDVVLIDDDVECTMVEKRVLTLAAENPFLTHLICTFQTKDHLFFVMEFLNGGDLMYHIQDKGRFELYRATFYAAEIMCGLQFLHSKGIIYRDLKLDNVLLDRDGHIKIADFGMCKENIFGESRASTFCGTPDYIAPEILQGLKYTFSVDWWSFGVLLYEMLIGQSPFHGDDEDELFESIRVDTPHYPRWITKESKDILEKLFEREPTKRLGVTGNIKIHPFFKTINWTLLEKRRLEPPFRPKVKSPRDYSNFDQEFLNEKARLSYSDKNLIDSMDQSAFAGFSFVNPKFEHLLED
UniProt P35222: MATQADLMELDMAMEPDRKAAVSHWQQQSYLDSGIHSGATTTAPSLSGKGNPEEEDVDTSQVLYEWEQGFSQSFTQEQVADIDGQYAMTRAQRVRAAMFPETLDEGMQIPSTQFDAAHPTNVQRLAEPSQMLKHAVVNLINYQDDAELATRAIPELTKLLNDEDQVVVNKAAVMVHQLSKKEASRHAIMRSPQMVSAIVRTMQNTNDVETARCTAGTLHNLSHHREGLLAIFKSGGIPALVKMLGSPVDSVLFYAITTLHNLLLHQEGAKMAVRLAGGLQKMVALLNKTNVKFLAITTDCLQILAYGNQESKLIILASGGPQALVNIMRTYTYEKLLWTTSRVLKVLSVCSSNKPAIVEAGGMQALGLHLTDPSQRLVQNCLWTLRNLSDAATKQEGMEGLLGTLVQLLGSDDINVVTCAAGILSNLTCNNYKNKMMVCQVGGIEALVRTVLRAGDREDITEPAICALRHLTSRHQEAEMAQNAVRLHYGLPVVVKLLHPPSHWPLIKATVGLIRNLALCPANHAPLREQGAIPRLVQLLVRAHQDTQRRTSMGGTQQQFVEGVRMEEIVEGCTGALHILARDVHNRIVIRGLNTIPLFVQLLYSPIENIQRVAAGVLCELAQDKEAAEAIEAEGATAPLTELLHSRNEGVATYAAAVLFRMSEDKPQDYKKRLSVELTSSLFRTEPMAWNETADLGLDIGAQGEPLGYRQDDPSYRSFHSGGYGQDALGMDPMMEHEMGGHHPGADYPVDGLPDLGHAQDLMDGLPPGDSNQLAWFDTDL

Tests used:
[1] = target: FLAG-epitope-tagged full-length CUB domain-containing protein 1 (CDCP1) (UniProt Q9H5V8); assay: co-IP; anti-FLAG agarose from MDA-MB-231 cells transduced with adenoviral CDCP1 forms, immunoblot; also with PAI-1 coexpression, 20 μM GM6001, 100 nM dasatinib or 100 μM sodium pervanadate
[2] = target: CDCP1 (full length), transiently expressed in HEK 293 cells (UniProt Q9H5V8); assay: co-IP; HEK 293 cells transiently transfected; CDCP1 or ΔCDCP1-containing complexes isolated with anti-FLAG agarose, immunoblot
[3] = target: FLAG-epitope-tagged full-length CUB domain-containing protein 1 (CDCP1) (UniProt Q9H5V8); assay: co-IP; sequential anti-FLAG (CDCP1), anti-Src immunoprecipitation from MDA-MB-468 cells transduced with adenoviruses encoding GFP, CDCP1 or PKCδ; unstimulated or stimulated with EGF or 100 μM sodium pervanadate for 20 minutes, with or without DDA RBF3; immunoblot
[4] = target: FLAG-epitope-tagged full-length CUB domain-containing protein 1 (CDCP1) (UniProt Q9H5V8); assay: co-IP; immunoprecipitation of FLAG-tagged CDCP1 forms from MDA-MB-468 cell extracts, immunoblot; cells also pretreated with DDA NSC624203 (20 μM, 24 h, and a range of concentrations), lapatinib (20 μM, 24 h), dasatinib (100 nM, 24 h) or EGF (10 ng/ml, 20 min)
[5] = target: FLAG-epitope-tagged full-length CUB domain-containing protein 1 (CDCP1) (UniProt Q9H5V8); assay: co-IP; immunoprecipitation of FLAG-tagged CDCP1 forms from BT474 cell extracts, immunoblot
[6] = target: FLAG-epitope-tagged full-length CUB domain-containing protein 1 (CDCP1) (UniProt Q9H5V8); assay: co-IP; sequential immunoprecipitation of CDCP1, then Src, from MDA-MB-468 cells, immunoblot; with or without 20 μM DDA NSC624203 for 24 hours
[7] = target: endogenous CDCP1 (human (endogenous in T47D)) (UniProt Q9H5V8); assay: co-IP; T47D cell extracts immunoprecipitated with a CDCP1 antibody, immunoblot

Substance: Enigma/PDLIM7 in MDA-MB-231 cells (from UniProt Q9NR12 1-457)
- binding [1]: binds

Substance: Galectin 1, endogenous (from UniProt P09382 1-135)
- binding [2]: binds

Substance: Myc-tagged mouse PKCδ (printed as PKC™), adenovirally expressed (from UniProt P28867 1-674) (enzyme)
- binding [3]: binds

Substance: PKCδ (from UniProt Q05655 1-676) (enzyme)
- binding [4]: binds

Substance: epidermal growth factor receptor (EGFR), endogenous (from UniProt P00533 25-1210)
- binding [5]: binds weakly
- binding [6]: binds
- binding [4]: binds

Substance: β-catenin, endogenous (from UniProt P35222 1-781)
- binding [7]: binds
